Measurements taken from paper PMC12643531.
Results are given in words; binding and its absence hold for the method and conditions named. Binding seen in cells or lysates may run through a third protein. Here binding means that the protein was enriched with, or labelled near, the bait; the list need not be complete. Sequences can lack the tags named with a protein.

Protein sequences, listed by entry. Tags and fused reporters are not part of them.
UniProt Q8W234: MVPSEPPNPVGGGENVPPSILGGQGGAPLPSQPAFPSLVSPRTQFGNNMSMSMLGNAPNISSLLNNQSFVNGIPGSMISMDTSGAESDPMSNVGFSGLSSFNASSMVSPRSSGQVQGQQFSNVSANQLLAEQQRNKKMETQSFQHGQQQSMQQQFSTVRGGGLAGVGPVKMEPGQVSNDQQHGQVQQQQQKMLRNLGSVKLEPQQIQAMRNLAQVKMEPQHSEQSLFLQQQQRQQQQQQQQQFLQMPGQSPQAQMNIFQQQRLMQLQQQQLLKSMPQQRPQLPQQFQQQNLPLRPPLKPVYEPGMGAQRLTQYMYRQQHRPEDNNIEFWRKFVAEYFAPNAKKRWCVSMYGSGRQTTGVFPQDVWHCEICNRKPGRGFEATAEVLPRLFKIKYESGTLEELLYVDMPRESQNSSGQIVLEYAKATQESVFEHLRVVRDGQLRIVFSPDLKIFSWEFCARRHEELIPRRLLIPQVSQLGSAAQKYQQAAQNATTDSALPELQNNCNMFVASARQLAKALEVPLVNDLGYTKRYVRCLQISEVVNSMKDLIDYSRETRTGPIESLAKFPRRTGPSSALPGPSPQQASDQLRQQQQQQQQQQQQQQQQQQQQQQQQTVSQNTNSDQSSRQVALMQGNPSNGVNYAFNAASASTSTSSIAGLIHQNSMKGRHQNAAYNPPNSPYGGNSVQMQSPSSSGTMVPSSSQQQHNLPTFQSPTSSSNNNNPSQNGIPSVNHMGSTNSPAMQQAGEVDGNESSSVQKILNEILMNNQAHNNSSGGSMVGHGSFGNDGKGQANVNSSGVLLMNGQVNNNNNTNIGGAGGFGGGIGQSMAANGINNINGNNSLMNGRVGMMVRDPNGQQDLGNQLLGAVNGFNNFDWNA
UniProt P35631: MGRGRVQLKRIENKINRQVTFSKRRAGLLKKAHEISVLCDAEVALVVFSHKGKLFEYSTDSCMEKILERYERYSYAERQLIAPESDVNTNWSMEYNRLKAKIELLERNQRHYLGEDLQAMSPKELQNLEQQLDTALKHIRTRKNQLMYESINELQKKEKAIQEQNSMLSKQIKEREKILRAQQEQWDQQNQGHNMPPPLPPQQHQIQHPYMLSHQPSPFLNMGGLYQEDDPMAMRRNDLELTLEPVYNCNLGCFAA
UniProt Q9LE42: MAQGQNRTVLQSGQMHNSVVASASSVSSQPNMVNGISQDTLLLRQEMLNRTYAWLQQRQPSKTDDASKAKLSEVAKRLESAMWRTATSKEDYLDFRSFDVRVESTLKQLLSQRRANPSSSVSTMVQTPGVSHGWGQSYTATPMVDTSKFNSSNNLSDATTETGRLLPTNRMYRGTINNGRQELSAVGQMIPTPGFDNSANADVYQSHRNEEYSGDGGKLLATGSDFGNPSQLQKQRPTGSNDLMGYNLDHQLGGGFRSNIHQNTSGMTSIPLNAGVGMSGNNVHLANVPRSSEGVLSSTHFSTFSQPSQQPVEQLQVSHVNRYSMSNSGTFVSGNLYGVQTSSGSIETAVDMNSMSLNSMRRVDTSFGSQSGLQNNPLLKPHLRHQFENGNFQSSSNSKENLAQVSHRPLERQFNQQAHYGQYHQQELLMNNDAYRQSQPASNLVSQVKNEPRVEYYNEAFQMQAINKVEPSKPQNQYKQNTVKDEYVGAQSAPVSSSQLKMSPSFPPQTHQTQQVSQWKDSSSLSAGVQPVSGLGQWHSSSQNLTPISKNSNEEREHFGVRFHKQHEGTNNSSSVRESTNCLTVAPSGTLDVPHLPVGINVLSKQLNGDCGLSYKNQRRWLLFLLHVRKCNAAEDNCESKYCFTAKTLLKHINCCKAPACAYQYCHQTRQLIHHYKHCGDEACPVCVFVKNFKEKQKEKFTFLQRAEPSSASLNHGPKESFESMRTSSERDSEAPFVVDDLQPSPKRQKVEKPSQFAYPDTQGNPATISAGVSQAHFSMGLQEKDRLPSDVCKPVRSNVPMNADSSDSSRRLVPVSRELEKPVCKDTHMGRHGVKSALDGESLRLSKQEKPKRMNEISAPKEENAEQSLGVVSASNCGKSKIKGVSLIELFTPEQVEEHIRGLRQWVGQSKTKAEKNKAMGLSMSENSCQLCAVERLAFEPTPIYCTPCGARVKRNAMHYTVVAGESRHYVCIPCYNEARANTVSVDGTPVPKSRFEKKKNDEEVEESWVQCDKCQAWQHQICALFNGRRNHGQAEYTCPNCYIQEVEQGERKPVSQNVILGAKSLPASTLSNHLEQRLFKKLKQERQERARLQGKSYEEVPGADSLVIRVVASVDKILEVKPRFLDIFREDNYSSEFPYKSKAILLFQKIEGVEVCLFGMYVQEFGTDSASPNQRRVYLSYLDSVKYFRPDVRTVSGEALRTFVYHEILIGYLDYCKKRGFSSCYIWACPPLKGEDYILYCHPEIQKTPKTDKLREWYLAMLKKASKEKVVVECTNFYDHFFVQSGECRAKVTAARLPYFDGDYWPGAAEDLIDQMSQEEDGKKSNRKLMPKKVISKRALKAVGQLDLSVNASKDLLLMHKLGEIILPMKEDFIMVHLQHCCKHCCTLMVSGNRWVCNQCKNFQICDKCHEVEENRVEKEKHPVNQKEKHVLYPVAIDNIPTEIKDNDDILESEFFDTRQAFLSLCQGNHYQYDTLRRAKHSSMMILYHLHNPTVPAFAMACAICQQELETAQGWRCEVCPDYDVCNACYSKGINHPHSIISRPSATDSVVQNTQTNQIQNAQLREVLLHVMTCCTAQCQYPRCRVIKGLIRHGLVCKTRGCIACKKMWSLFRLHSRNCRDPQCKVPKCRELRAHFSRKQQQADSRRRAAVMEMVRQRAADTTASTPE

molecular target: T1, LEUNIG_HOMOLOG (LUH)-GFP (Arabidopsis thaliana) (UniProt O48847); assay: affinity purification with mass spectrometry; LUH-GFP precipitated with anti-GFP micro beads (4°C, 1 h) from nuclear protein extracts of FIS inflorescences at 0, 2, 4 and 8 DAI; LC-MS/MS; enrichment against input, P < 0.05 and FC > 4; three biological replicates
T1 sequence: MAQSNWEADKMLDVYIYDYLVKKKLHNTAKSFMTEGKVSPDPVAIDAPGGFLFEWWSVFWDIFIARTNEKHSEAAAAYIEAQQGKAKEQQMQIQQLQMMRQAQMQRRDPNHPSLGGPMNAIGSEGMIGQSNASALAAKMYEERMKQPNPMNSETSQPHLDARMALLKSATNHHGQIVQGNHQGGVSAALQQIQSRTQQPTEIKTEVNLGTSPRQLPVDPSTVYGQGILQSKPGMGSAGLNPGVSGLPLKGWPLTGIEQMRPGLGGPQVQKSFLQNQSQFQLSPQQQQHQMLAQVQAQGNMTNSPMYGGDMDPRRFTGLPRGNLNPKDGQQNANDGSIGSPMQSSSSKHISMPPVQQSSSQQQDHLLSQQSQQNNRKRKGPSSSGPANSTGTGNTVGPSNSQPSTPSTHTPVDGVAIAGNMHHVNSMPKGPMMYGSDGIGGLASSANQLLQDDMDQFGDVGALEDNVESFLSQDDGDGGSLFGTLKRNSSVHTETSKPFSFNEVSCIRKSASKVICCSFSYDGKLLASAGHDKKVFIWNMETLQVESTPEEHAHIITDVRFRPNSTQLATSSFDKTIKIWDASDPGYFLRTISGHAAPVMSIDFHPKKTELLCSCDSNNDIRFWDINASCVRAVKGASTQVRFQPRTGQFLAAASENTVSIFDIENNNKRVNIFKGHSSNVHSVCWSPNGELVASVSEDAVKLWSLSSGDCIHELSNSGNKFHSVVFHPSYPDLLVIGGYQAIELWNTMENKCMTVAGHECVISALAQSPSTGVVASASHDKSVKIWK

| Molecule | binding |
| --- | --- |
| SEUSS (SEU) (from UniProt Q8W234 1-877) | binds |
| APETALA1 (AP1), from FIS inflorescences (from UniProt P35631 1-256) | binds |
| …3 (SEP3), endogenous (from UniProt O22456 1-251) | binds |
| HAC5 (from UniProt Q9LE42 1-1670) (enzyme) | binds |

molecular target: T1, LEUNIG_HOMOLOG (LUH)-GFP (Arabidopsis thaliana); assay: as above; remark: another data set of the same source

| Molecule | binding |
| --- | --- |
| AINTEGUMENTA-like 6 (AIL6) (protein, UniProt Q52QU2 1-581) MMAPMTNWLTFSLSPMEMLRSSDQSQFVSYDASSAASSSPYLLDNFYGWSNQKPQEFFKEEAQLAAAASMADSTILTTFVDPQSHHSQNHIPKLEDFLGDSSSIVRYSDNSQTDTQDSSLTQIYDPRHHHNQTGFYSDHHDFKTMAGFQSAFSTNSGSEVDDSASIGRTHLAGDYLGHVVESSGPELGFHGGSTGALSLGVNVNNNTNHRNDNDNHYRGNNNGERINNNNNNDNEKTDSEKEKAVVAVETSDCSNKKIADTFGQRTSIYRGVTRHRWTGRYEAHLWDNSCRREGQARKGRQGGYDKEDKAARAYDLAALKYWNATATTNFPITNYSKEVEEMKHMTKQEFIASLRRKSSGFSRGASIYRGVTRHHQQGRWQARIGRVAGNKDLYLGTFATEEEAAEAYDIAAIKFRGINAVTNFEMNRYDVEAIMKSALPIGGAAKRLKLSLEAAASSEQKPILGHHQLHHFQQQQQQQQLQLQSSPNHSSINFALCPNSAVQSQQIIPCGIPFEAAALYHHHQQQQQHQQQQQQQNFFQHFPANAASDSTGSNNNSNVQGTMGLMAPNPAEFFLWPNQSY | binds |
| KNOTTED-LIKE FROM ARABIDOPSIS THALIANA (KNAT1) (protein, UniProt P46639 1-398) MEEYQHDNSTTPQRVSFLYSPISSSNKNDNTSDTNNNNNNNNSSNYGPGYNNTNNNNHHHQHMLFPHMSSLLPQTTENCFRSDHDQPNNNNNPSVKSEASSSRINHYSMLMRAIHNTQEANNNNNDNVSDVEAMKAKIIAHPHYSTLLQAYLDCQKIGAPPDVVDRITAARQDFEARQQRSTPSVSASSRDPELDQFMEAYCDMLVKYREELTRPIQEAMEFIRRIESQLSMLCQSPIHILNNPDGKSDNMGSSDEEQENNSGGETELPEIDPRAEDRELKNHLLKKYSGYLSSLKQELSKKKKKGKLPKEARQKLLTWWELHYKWPYPSESEKVALAESTGLDQKQINNWFINQRKRHWKPSEDMQFMVMDGLQHPHHAALYMDGHYMGDGPYRLGP | binds |
| GRF1-… FACTOR 1 (GIF1) (protein, UniProt Q8L8A5 1-210) MQQHLMQMQPMMAGYYPSNVTSDHIQQYLDENKSLILKIVESQNSGKLSECAENQARLQRNLMYLAAIADSQPQPPSVHSQYGSAGGGMIQGEGGSHYLQQQQATQQQQMTQQSLMAARSSMLYAQQQQQQQPYATLQHQQLHHSQLGMSSSSGGGGSSGLHILQGEAGGFHDFGRGKPEMGSGGGGEGRGGSSGDGGETLYLKSSDDGN | binds |
| LEUNIG (LUG) (protein, UniProt Q9FUY2 1-931) MSQTNWEADKMLDVYIHDYLVKRDLKATAQAFQAEGKVSSDPVAIDAPGGFLFEWWSVFWDIFIARTNEKHSEVAASYIETQMIKAREQQLQQSQHPQVSQQQQQQQQQQIQMQQLLLQRAQQQQQQQQQQHHHHQQQQQQQQQQQQQQQQQQQQHQNQPPSQQQQQQSTPQHQQQPTPQQQPQRRDGSHLANGSANGLVGNNSEPVMRQNPGSGSSLASKAYEERVKMPTQRESLDEAAMKRFGDNVGQLLDPSHASILKSAAASGQPAGQVLHSTSGGMSPQVQTRNQQLPGSAVDIKSEINPVLTPRTAVPEGSLIGIPGSNQGSNNLTLKGWPLTGFDQLRSGLLQQQKPFMQSQSFHQLNMLTPQHQQQLMLAQQNLNSQSVSEENRRLKMLLNNRSMTLGKDGLGSSVGDVLPNVGSSLQPGGSLLPRGDTDMLLKLKMALLQQQQQNQQQGGGNPPQPQPQPQPLNQLALTNPQPQSSNHSIHQQEKLGGGGSITMDGSISNSFRGNEQVLKNQSGRKRKQPVSSSGPANSSGTANTAGPSPSSAPSTPSTHTPGDVISMPNLPHSGGSSKSMMMFGTEGTGTLTSPSNQLADMDRFVEDGSLDDNVESFLSQEDGDQRDAVTRCMDVSKGFTFTEVNSVRASTTKVTCCHFSSDGKMLASAGHDKKAVLWYTDTMKPKTTLEEHTAMITDIRFSPSQLRLATSSFDKTVRVWDADNKGYSLRTFMGHSSMVTSLDFHPIKDDLICSCDNDNEIRYWSINNGSCTRVYKGGSTQIRFQPRVGKYLAASSANLVNVLDVETQAIRHSLQGHANPINSVCWDPSGDFLASVSEDMVKVWTLGTGSEGECVHELSCNGNKFQSCVFHPAYPSLLVIGCYQSLELWNMSENKTMTLPAHEGLITSLAVSTATGLVASASHDKLVKLWK | binds |
